Source: patent US8748368B2, “Methods for preserving organs and tissues” (DYAX Corp., priority 2002, dated 2014)
Part of at least one peptide drawing is inferred or uncertain, most often the ends. Positions of bridges follow the written chain, without caps; N, C: chain ends. No end group written: not given here.

Amino acid sequences for entries named in this document (tags omitted). Residues count along the entry.
UniProt P03952, 20-390 limits assumed: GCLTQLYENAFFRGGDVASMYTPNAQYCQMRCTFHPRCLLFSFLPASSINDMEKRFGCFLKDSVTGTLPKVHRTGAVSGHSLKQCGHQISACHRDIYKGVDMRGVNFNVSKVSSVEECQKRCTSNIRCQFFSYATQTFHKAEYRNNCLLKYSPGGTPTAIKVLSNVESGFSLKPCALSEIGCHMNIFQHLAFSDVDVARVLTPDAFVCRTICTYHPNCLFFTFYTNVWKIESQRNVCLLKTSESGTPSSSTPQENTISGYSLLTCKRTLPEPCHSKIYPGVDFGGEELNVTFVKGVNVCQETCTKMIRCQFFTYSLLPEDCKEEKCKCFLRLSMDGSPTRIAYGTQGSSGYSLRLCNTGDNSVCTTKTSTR
UniProt P03952, 391-638 limits assumed: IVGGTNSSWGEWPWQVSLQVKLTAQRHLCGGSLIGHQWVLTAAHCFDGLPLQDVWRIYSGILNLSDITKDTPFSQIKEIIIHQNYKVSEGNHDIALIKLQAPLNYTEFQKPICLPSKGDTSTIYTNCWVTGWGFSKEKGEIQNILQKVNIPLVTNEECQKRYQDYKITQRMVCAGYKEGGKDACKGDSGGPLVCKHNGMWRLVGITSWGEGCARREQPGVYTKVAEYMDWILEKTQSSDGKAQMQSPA

Key:
human plasma kallikrein = human plasma kallikrein (Homo sapiens, UniProt P03952); assay: Kallikrein inhibition assay / affinity (Ki,app) for protease; assay type: biochemical; settings: compared with eleven other plasma proteases
kallikrein = kallikrein (Homo sapiens, UniProt P03952); assay: Inhibition of exogenous kallikrein (substrate S2302) by cell-bound PEP-1 on HUVEC; assay type: cell-based; settings: HUVEC after cold storage
human pancreatic trypsin = assay: Affinity (Ki,app) for protease; assay type: biochemical
HUVEC = assay: Light microscopy evaluation of cell-bound PEP-1 on cold-stored HUVEC; assay type: cell-based

With “EAMHSFCAFKADDGPCRAAHPRWFFNIFTRQCEEFIYGGCEGNQNRFESLEECKKMCTRD (disulfide 7-57, 16-40, 32-53) [PEP-1]” the “specificity for human plasma kallikrein” value (human plasma kallikrein) was “highly specific for human plasma kallikrein”, the “kallikrein inhibitory activity of cell-bound PEP-1” value (kallikrein) was “retained the ability to inhibit exogenous kallikrein” and the Ki (human pancreatic trypsin) was greater than 20 µM. For the same sequence, the “binding to the surface of HUVEC” value (HUVEC; HUVEC cold treated for 24 hours, light microscopy) was “significant binding” and the “PEP-1 concentration giving the maximum of the binding” value (HUVEC; cold-stored HUVEC) was 5 mg/mL.
